Measurements as given in PMC10876507, “Chelator impact: investigating the pharmacokinetic behavior of copper-64 labeled PD-L1 radioligands” (EJNMMI Radiopharmacy and Chemistry, 2024).

Tested on: PC3 PD-L1 and PC3 mock cells
Assay: In vitro cell uptake in PC3 PD-L1 and PC3 mock cells
Type: cell-based, human
Details: for plastic retention of [64Cu]Cu-16 relative to [64Cu]Cu-14: cell uptake assay
Procedure: Both the target-positive (PC3 PD-L1) and negative cells (PC3 mock) were seeded at ~60,000 cells per well two days prior to the experiment. At the time of experiment, cells were then incubated with the respective radioligand at or close to the KD (determined by saturation binding) in binding buffer. For each timepoint and radiotracer (30, 60, 120 and 240 min), a single plate was used (with triplicate measurements). Additional controls per plate included plastic retention, nonspecific binding [excess of unlabeled BMS-1166 (in DMSO, resulting in 0.03% v/v) for both PC3 PD-L1 and PC3 mock] and cells incubated with PBS only (protein control). Following incubation, cells were washed twice in ice-cold binding buffer, lysed in 500 μL of 0.1 M NaOH + 1% SDS and radioactivity was measured in a gamma counter (Perkin Elmer Wizard 1480) and decay corrected to a reference time (end of radiolabeling).
Protein content was determined for each timepoint and cell type by BCA assay.
Figure S27: Cell uptake (fmol/mg protein) of [64Cu]Cu-14&16 into either PC3 PD-L1 or PC3 mock cells. Uptake of both […]
effects model. Binding to PC3 mock cells is similar to that of PC3 PD-L1 and PC3 mock cells blocked with an excess of […]

Cc1c(COc2cc(OCc3cncc(S(C)(=O)=O)c3)c(CN[C@@H](CS(=O)(=O)O)C(=O)NCCS(=O)(=O)O)cc2Br)cccc1-c1cccc(OCc2cn(CCCN3CCN(C(=O)[C@H](CS(=O)(=O)O)NC(=O)CCCC(=O)NC45CNCCNCC(N)(CNCCNC4)CNCCNC5)CC3)nn2)c1C.[64Cu+2] [[^64Cu]Cu-16]
plastic retention of [64Cu]Cu-16 relative to [64Cu]Cu-14: ~ 10 times

Cc1c(COc2cc(OCc3cncc(S(C)(=O)=O)c3)c(CN[C@@H](CS(=O)(=O)O)C(=O)NCCS(=O)(=O)O)cc2Br)cccc1-c1cccc(OCc2cn(CCCN3CCN(C(=O)[C@H](CS(=O)(=O)O)NC(=O)CC[C@H](C(=O)[O-])N4CCN(CC(=O)[O-])CCN(CC(=O)[O-])CC4)CC3)nn2)c1C.[64Cu+2] [[^64Cu]Cu-14]
plastic retention of [64Cu]Cu-16 relative to [64Cu]Cu-14: 10 times | plastic retention (cell uptake assay control wells): 0.03 % of tracer stock activity
